In patent US20130315903A1, “ARYLSULFONAMIDE DERIVATIVES FOR THE PREVENTION OR TREATMENT OF SPECIFIC OPHTHALMOLOGIC DISORDERS” (FOVEA PHARMACEUTICALS, priority 2010, published 2013):

Test: Glycemia in streptozotocin-diabetic rats
Format: in vivo, rat

SMILES	effect on glycemia (diabetic Wistar rats, 1% phosphate eye drops for 7 days)	effect on glycemia (diabetic Brown-Norway and Wistar rats, eye drops 7 days)
COc1cc(C)c(S(=O)(=O)N(C)CCOCC(=O)N(C)Cc2ccc(C3=NCCN3)cc2)c(C)c1 [compound n° 49 phosphate]	without affecting	
COc1cc(C)c(S(=O)(=O)N(C)CCOCC(=O)N(C)Cc2ccc(C3=NCCN3)cc2)c(C)c1 [compound n° 49]		did not affect
